In PMC11992678:
These are yes or no findings as the source states them, for the method shown. Binding seen in cells or lysates may run through a third protein. Some entries that bind do so weakly or less than the wild type.

Protein sequences, listed by entry. Tags and fused reporters are not part of them.
UniProt Q8NDV7: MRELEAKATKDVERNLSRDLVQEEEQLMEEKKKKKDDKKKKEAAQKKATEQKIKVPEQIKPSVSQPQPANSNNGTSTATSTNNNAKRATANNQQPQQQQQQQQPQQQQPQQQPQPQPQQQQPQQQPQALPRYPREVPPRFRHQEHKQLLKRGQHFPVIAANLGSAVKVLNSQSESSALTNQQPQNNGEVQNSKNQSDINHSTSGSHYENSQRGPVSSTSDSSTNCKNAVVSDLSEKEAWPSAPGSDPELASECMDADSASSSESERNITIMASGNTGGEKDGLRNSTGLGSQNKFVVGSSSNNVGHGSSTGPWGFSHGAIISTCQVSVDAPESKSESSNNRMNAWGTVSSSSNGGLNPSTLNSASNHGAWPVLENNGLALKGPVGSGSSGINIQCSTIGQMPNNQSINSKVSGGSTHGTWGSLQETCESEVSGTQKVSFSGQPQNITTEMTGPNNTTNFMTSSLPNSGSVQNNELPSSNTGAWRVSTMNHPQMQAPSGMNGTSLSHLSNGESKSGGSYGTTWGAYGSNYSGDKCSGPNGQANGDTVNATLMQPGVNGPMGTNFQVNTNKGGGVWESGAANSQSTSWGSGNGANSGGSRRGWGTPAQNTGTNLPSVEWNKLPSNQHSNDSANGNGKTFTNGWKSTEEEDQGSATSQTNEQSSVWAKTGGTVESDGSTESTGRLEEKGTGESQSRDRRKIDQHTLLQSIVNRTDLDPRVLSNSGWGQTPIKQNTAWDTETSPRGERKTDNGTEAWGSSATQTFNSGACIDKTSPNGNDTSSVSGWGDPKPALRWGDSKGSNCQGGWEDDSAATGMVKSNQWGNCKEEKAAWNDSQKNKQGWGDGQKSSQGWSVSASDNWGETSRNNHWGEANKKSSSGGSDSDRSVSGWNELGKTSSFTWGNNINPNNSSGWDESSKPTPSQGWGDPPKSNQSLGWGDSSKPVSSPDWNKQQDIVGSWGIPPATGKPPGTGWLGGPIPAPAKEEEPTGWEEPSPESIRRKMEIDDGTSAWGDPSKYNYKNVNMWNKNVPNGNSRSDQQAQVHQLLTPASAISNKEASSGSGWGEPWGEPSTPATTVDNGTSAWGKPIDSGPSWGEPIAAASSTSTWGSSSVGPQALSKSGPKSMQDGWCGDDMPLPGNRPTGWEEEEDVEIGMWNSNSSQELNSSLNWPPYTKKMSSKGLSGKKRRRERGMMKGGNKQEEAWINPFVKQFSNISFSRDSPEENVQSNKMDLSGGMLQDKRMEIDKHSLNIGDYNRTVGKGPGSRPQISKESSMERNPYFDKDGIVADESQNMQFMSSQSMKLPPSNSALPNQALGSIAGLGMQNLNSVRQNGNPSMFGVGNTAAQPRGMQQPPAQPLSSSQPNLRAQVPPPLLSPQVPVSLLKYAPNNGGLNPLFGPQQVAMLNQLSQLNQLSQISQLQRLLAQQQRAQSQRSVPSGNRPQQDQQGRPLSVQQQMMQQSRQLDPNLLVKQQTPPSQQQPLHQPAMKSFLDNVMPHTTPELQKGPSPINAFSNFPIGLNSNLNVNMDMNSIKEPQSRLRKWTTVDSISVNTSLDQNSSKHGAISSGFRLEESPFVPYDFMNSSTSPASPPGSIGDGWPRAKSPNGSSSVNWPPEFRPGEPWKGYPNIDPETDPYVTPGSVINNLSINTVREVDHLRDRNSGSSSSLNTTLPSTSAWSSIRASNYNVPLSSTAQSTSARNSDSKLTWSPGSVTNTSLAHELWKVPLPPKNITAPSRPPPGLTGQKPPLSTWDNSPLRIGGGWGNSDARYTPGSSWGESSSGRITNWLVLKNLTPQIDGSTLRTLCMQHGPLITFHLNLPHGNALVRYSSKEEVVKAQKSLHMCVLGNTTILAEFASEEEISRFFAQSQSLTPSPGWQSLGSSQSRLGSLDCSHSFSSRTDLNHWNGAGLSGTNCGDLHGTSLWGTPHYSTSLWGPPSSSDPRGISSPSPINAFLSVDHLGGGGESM
UniProt Q9UKV8: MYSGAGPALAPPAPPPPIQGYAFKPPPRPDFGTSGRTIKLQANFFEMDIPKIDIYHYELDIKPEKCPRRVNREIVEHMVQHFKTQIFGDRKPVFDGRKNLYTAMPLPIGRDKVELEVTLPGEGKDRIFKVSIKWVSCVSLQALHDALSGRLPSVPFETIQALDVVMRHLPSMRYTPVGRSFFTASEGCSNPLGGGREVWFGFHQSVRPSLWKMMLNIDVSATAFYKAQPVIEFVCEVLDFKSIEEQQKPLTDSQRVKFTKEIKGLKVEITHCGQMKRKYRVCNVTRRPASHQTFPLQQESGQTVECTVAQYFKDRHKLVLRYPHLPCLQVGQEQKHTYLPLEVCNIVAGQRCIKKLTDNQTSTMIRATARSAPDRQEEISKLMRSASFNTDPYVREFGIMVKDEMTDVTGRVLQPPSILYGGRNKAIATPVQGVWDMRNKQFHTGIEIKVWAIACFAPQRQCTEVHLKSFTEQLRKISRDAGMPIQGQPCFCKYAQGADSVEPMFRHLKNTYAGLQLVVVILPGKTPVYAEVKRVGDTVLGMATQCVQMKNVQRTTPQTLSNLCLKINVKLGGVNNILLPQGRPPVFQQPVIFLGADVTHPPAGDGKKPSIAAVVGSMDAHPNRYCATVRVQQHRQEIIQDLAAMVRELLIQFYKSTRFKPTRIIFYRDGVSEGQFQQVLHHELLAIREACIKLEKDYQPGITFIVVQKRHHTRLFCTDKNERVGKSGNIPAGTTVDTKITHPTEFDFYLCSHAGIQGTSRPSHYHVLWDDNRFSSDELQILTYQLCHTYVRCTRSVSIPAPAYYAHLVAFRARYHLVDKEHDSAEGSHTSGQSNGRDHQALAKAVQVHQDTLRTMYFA

What was measured:
[1] = molecular target: TNRC6A (GW182) (human (endogenous in A549)) (UniProt Q8NDV7); experiment: co-IP; TNRC6 IP from cytoplasmic and nuclear lysates of A549 cells treated with control siRNA or siAGO2 for 24 h (Fig 3I); blots for TNRC6, AGO2 and p53
[2] = molecular target: AGO2 (human (endogenous in HEK293, HEK293T, A549, SK-N-BE(2), MCF7)) (UniProt Q9UKV8); experiment: co-IP; AGO2 IP or p53 IP from the nuclear fraction of A549 cells (Fig 3G, 3H); blots for AGO2, p53 and TNRC6A
[3] = molecular target: AGO2 (human (endogenous in HEK293, HEK293T, A549, SK-N-BE(2), MCF7)) (UniProt Q9UKV8); experiment: co-IP; AGO2 IP or p53 IP from the cytoplasmic fraction of A549 cells (Fig 3G, 3H); blots for AGO2, p53 and TNRC6A

Substance	binding [1]	binding [2]	binding [3]
p53 (from UniProt P04637 1-393)	binds		
TNRC6A (GW182) (from UniProt Q8NDV7 1-1962)		binds	binds
